Laboratory results as given in PubChem BioAssay AID248 (DTP/NCI, 2004).
The list is a part of this screen's results and no random one: it gathers tests that were run many times, whatever their T/C, doses with no T/C, and many T/C values between a quarter and a half above the control. Other doses and runs of a compound stand elsewhere. T/C is the treated group as % of the vehicle group. Some doses have a count of surviving animals in place of a T/C: the source holds a T/C of zero for them, seemingly a mark for toxic or unscored doses. Some survivor counts are full or nearly so, which does not show that the dose was tolerated: the source hardly ever lists a survival T/C far under the control, and the zero likely stands for such cases as well. Survivors were counted at the toxicity check, usually on the fifth day, unless a day is given; later deaths do not show. Schedules are NCI's codes, taken here to give the interval after Q, in days (D) or hours (H), and the number of doses after X. Some schedule codes hold Z or #, which are not explained here.

System: L1210 leukemia ip in BDF1 mice, survival T/C
Assay: NCI In Vivo Anticancer Drug Screen. Data for tumor model L1210 Leukemia (intraperitoneal) in B6D2F1 (BDF1) mice
Settings: T/C endpoint: mean survival time, higher T/C = longer survival
[1] = dose: 200.0 mg/kg/injection, schedule: Q04DX003 (ip), vehicle: saline
[2] = dose: 400.0 mg/kg/injection, schedule: Q04DX003 (ip), vehicle: saline
[3] = dose: 300.0 mg/kg/injection, schedule: Q01DX001 (ip), vehicle: saline
[4] = dose: 80.0 mg/kg/injection, schedule: Q01DX001 (ip), vehicle: saline
[5] = dose: 50.0 mg/kg/injection, schedule: Q01DX009 (ip), vehicle: saline

Question: With `CC[N+](CC)(CC)CCOC(=O)C1C2CC3OC(=O)C1C3C2` (configuration not stated) as the compound, how does the survivor count [1] read?
Answer: 3 of 3

Question: What about the survivor count [2] of the same compound?
Answer: 0 of 3

Question: How did the survivor count [2] turn out when `COc1cc(N/C(N)=N\C(N)=NC(C)C)cc(OC)c1OC` was run?
Answer: 4 of 6

Question: Which survivor count (dose: 50.0 mg/kg/injection, schedule: Q01DX001 (ip), vehicle: saline) does the source give for `NC(=S)N/N=C/C(=O)O` here?
Answer: 4 of 4

Question: What does the source list for `c1ccc2c[n+](Cc3nc4ccccc4[nH]3)ccc2c1`?
Answer: survivor count (dose: 150.0 mg/kg/injection, schedule: Q01DX001 (ip), vehicle: saline): 1 of 6; survivor count [3]: 1 of 6

Question: For `Nc1nc2nc(I)[nH]c2c(=O)[nH]1`, which survivor count [4] is on record?
Answer: 0 of 6

Question: And the survivor count (dose: 100.0 mg/kg/injection, schedule: Q01DX001 (ip), vehicle: saline)?
Answer: 0 of 4

Question: And the survivor count (dose: 200.0 mg/kg/injection, schedule: Q01DX001 (ip), vehicle: saline)?
Answer: 1 of 4

Question: What about the survivor count (dose: 400.0 mg/kg/injection, schedule: Q01DX001 (ip), vehicle: saline) of the same compound?
Answer: 1 of 4

Question: `CN(C)CCCN1c2ccccc2S(=O)c2ccc(Cl)cc21` (configuration not stated) was tested. Which survivor count [2] did it give?
Answer: 0 of 4

Question: Which results are given for `NC(N)=N/N=C\c1ccccc1/C=N/N=C(N)N`?
Answer: survivor count (dose: 60.0 mg/kg/injection, schedule: Q01DX Z (ip), vehicle: saline): 1 of 6; survivor count (dose: 120.0 mg/kg/injection, schedule: Q01DX Z (ip), vehicle: saline): 0 of 6

Question: Which survivor count (dose: 200.0 mg/kg/injection, schedule: Q04DX003 (ip), vehicle: saline sonified) does the source give for `COc1ccc2c(c1)CCC1(C)C2=CC(=O)/C1=C\[O-].COc1ccc2c(c1)CCC1(C)C2=CC(=O)/C1=C\[O-].[Cu+2]` (configuration not stated) here?
Answer: 6 of 6

Question: And the survivor count (dose: 400.0 mg/kg/injection, schedule: Q04DX003 (ip), vehicle: saline sonified)?
Answer: 6 of 6

Question: For `CC(=O)N(N=O)c1ccc(C)cc1`, which survivor count [4] is on record?
Answer: 0 of 4

Question: How did the survivor count (dose: 3.12 mg/kg/injection, schedule: Q01DX009 (ip), vehicle: saline) turn out when `C[CH2][Sn](/[CH]=C\CO)([CH2]C)[CH2]C` was run?
Answer: 0 of 3

Question: And the survivor count (dose: 6.25 mg/kg/injection, schedule: Q01DX009 (ip), vehicle: saline)?
Answer: 2 of 3

Question: And the survivor count (dose: 12.5 mg/kg/injection, schedule: Q01DX009 (ip), vehicle: saline)?
Answer: 0 of 3

Question: And the survivor count [5]?
Answer: 0 of 3

Question: And the survivor count (dose: 100.0 mg/kg/injection, schedule: Q01DX009 (ip), vehicle: saline)?
Answer: 0 of 3

Question: And the survivor count (dose: 200.0 mg/kg/injection, schedule: Q01DX009 (ip), vehicle: saline)?
Answer: 0 of 3

Question: For `CCC(=O)c1cc(O)ccc1O`, which survivor count (dose: 400.0 mg/kg/injection, schedule: Q04DX003 (ip), vehicle: other) is on record?
Answer: 5 of 6

Question: Which survivor count (dose: 200.0 mg/kg/injection, schedule: Q01DX001 (ip), vehicle: Klucel (hydroxypropylcellulose) (HPC)) does the source give for `N#Cc1nc2c(nc1N)CCCCCCCCCC2` here?
Answer: 3 of 3

Question: `C1COC(N2CC3CCC(CC3)C2)=N1` was tested. Which survivor count [3] did it give?
Answer: 0 of 6

Question: For `CCC1CC[N-]CC1.CCC1CC[N-]CC1.[Cl][Pt+2]([Cl])([Cl])[Cl]`, which survivor count [5] is on record?
Answer: 2 of 6

Question: And the survivor count (dose: 50.0 mg/kg/injection, schedule: Q04DX003 (ip), vehicle: saline)?
Answer: 4 of 6

Question: What about the survivor count (dose: 100.0 mg/kg/injection, schedule: Q04DX003 (ip), vehicle: saline) of the same compound?
Answer: 2 of 6

Question: And the survivor count [1]?
Answer: 1 of 6

Question: What about the survivor count [2] of the same compound?
Answer: 0 of 6

Question: How did the survivor count (dose: 200.0 mg/kg/injection, schedule: Q04DX003 (ip), vehicle: DMSO) turn out when `COc1cc2c3c(c1)-c1c(ccc(OC)c1O)CC3N(C)CC2` (configuration not stated) was run?
Answer: 1 of 5

Question: What about the survivor count (dose: 400.0 mg/kg/injection, schedule: Q04DX003 (ip), vehicle: DMSO) of the same compound?
Answer: 0 of 5
